Binding data for two molecules are collected here from paper doi:10.1101/2023.07.24.550340.

Changes are numbered by the printed parent chain. Results are given in words; binding and its absence hold for the method and conditions named. Binding seen in cells or lysates may run through a third protein. Some binding calls cover weakened binding; strength is not graded here. Tags and fused reporters may be left off the sequences shown.

Test [1] has as its target T1, FLAG-NR2F1 G368D (human) (UniProt P10589).
T1 sequence: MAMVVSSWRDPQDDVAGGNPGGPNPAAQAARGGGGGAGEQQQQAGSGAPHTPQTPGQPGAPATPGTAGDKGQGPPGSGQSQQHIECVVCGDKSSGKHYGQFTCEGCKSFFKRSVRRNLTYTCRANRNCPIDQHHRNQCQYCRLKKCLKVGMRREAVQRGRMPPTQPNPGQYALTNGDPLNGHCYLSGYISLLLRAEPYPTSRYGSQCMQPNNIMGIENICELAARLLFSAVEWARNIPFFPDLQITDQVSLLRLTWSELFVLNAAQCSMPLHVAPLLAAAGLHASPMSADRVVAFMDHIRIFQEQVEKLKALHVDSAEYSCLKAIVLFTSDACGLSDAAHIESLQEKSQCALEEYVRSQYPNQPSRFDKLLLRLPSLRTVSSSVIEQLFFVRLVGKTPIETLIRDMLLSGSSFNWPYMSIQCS
The test can be described thus: co-IP.

The target of test [2] is T2, FLAG-tagged NR2F1 wild type (FLAG-NR2F1-WT) (human) (UniProt P10589).
T2 sequence: T1 sequence with D368G
The test can be described thus: co-IP.

Test [3] concerns the target T3, FLAG-AzF-NR2F1 G368AzF (human) (UniProt P10589).
T3 sequence (chain, p-azidophenylalanine (AzF) at position 368): T1 sequence with D368F
In words: cross-linking.

In test [4] the target is T4, FLAG-Q244AzF-NR2F1 (human) (UniProt P10589).
T4 sequence (chain, p-azidophenylalanine (AzF) at position 244): T1 sequence with Q244F, D368G
In words: cross-linking.

The target of test [5] is FLAG-Q244AzF-NR2F1 with the pathogenic mutation E318D (human) (UniProt P10589). In words: cross-linking.
The target in test [6] is FLAG-Q244AzF-NR2F1 with the pathogenic mutation G395A (human) (UniProt P10589). In words: cross-linking.
Test [7] concerns the target FLAG-Q244AzF-NR2F1 with the pathogenic mutation L252P (human) (UniProt P10589). The test can be described thus: cross-linking.
Test [8] addresses FLAG-Q244AzF-NR2F1 with the pathogenic mutation L372P (human) (UniProt P10589). The test can be described thus: cross-linking.
The target of test [9] is T5, FLAG-AzF-NR2F1 with AzF at position 318 (human) (UniProt P10589).
T5 sequence (chain, p-azidophenylalanine (AzF) at position 318): T1 sequence with E318F, D368G
In words: cross-linking.

B1: Myc-tagged WT NR2F1 (Myc-NR2F1) (protein, UniProt P10589 1-423)
chain: T1 sequence with D368G
In the case of B1, the binding entry in test [1] was “binds weakly”; in [2] it was “binds weakly”; in test [3], “binds”; in test [4], “binds”; in [5] it was “binds”; in [6] it was “binds”. Further, the binding entry in [7] and in test [8] was “binds” in each case.

B2: Myc-tagged NR2F2 (Myc-NR2F2) (protein, UniProt P24468 1-414)
chain: MAMVVSTWRDPQDEVPGSQGSQASQAPPVPGPPPGAPHTPQTPGQGGPASTPAQTAAGGQGGPGGPGSDKQQQQQHIECVVCGDKSSGKHYGQFTCEGCKSFFKRSVRRNLSYTCRANRNCPIDQHHRNQCQYCRLKKCLKVGMRREAVQRGRMPPTQPTHGQFALTNGDPLNCHSYLSGYISLLLRAEPYPTSRFGSQCMQPNNIMGIENICELAARMLFSAVEWARNIPFFPDLQITDQVALLRLTWSELFVLNAAQCSMPLHVAPLLAAAGLHASPMSADRVVAFMDHIRIFQEQVEKLKALHVDSAEYSCLKAIVLFTSDACGLSDVAHVESLQEKSQCALEEYVRSQYPNQPTRFGKLLLRLPSLRTVSSSVIEQLFFVRLVGKTPIETLIRDMLLSGSSFNWPYMAIQ
B2: the binding entry in test [3], in test [9], in test [4], in test [5], in test [6] and in test [7] was “binds” throughout. Moreover, in [8], the binding entry is given as “binds”.
